{"source": "PubChem BioAssay AID686943 (Drosophila RNAi Screening Center, 2013)", "purpose": "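Search across the genome for regulators of signalling from receptor tyrosine kinase to ERK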 (primary screen)", "cells": "Drosophila S2R+ haemocyte-like cells expressing YFP-tagged ERK (Rolled)", "reagents": "long dsRNA against Drosophila genes", "challenge": "insulin stimulation versus unstimulated cells; dose and duration not given", "read-out": "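Per-plate z-scores of phospho-ERK immunostaining normalised to YFP-tagged ERK, measured with and without insulin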", "direction": "replicate 1, z-score of dpERK with insulin and replicate 2, z-score of dpERK with insulin: higher = more active ERK per ERK-YFP after insulin", "note": "The screen tested about 23,000 reagents; below is an unselected part of those with a known target gene and a result. 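Extra replicates exist only for a retested subset of genes; insulin dose and duration not given; both raised and lowered dpERK matter.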 Not all columns of the deposit are shown. Not given: the amount of reagent, the time to read-out."}
{"gene knocked down":"d-cup","dsRNA":"DRSC14846","replicate 1, z-score of dpERK with insulin":-0.32,"replicate 2, z-score of dpERK with insulin":0.03}
{"gene knocked down":"CG33489","dsRNA":"DRSC10588","replicate 1, z-score of dpERK with insulin":0.34,"replicate 2, z-score of dpERK with insulin":0}
{"gene knocked down":"eIF2beta","dsRNA":"DRSC11341","replicate 1, z-score of dpERK with insulin":0.7,"replicate 2, z-score of dpERK with insulin":1.73}
{"gene knocked down":"Obp58d","dsRNA":"DRSC04162","replicate 1, z-score of dpERK with insulin":-0.61,"replicate 2, z-score of dpERK with insulin":-0.3}
{"gene knocked down":"vari","dsRNA":"DRSC03202","replicate 1, z-score of dpERK with insulin":-0.32,"replicate 2, z-score of dpERK with insulin":1.04}
{"gene knocked down":"Adck5","dsRNA":"DRSC10890","replicate 1, z-score of dpERK with insulin":-0.35,"replicate 2, z-score of dpERK with insulin":-0.4}
{"gene knocked down":"CG31360","dsRNA":"DRSC13255","replicate 1, z-score of dpERK with insulin":0.12,"replicate 2, z-score of dpERK with insulin":-0.04}
{"gene knocked down":"CG13723","dsRNA":"DRSC10052","replicate 1, z-score of dpERK with insulin":0.09,"replicate 2, z-score of dpERK with insulin":0.22}
{"gene knocked down":"CG11608","dsRNA":"DRSC14334","replicate 1, z-score of dpERK with insulin":0.17,"replicate 2, z-score of dpERK with insulin":-0.25}
{"gene knocked down":"CG13578","dsRNA":"DRSC04214","replicate 1, z-score of dpERK with insulin":-0.03,"replicate 2, z-score of dpERK with insulin":0.09}
{"gene knocked down":"Klc","dsRNA":"DRSC11203","replicate 1, z-score of dpERK with insulin":-0.83,"replicate 2, z-score of dpERK with insulin":-0.5}
{"gene knocked down":"MRG15","dsRNA":"DRSC16731","replicate 1, z-score of dpERK with insulin":0.32,"replicate 2, z-score of dpERK with insulin":0.24}

Part of the list above in another layout.
gene knocked down	dsRNA	replicate 1, z-score of dpERK with insulin	replicate 2, z-score of dpERK with insulin
CG11608	DRSC14334	0.17	-0.25
CG13578	DRSC04214	-0.03	0.09
